Reference: the supplement of paper PMC10849652
This is one part of the list.

Protein sequences, listed by entry. Tags and fused reporters are not part of them. Lines headed by an entry give the natural chain unless they say otherwise; changes in a name come on top.
UniProt Q02252: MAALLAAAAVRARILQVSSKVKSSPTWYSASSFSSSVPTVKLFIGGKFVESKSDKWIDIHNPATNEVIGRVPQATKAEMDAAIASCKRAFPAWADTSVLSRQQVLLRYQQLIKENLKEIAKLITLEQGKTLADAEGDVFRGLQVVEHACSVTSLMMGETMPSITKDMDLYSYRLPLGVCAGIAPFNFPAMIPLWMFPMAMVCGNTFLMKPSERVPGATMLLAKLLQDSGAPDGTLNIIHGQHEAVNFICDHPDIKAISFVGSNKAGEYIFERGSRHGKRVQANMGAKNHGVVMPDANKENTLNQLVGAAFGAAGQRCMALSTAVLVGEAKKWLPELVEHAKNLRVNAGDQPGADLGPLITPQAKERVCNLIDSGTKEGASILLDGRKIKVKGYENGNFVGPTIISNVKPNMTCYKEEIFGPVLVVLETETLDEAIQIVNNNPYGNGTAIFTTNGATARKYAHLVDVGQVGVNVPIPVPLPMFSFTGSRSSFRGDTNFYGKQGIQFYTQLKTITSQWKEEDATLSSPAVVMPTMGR
UniProt Q92572: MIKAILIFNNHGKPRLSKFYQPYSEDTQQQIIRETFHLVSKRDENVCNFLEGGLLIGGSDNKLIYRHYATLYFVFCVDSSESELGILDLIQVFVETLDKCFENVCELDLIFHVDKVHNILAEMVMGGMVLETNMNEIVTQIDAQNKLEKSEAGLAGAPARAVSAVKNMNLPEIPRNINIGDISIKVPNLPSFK
UniProt O15084: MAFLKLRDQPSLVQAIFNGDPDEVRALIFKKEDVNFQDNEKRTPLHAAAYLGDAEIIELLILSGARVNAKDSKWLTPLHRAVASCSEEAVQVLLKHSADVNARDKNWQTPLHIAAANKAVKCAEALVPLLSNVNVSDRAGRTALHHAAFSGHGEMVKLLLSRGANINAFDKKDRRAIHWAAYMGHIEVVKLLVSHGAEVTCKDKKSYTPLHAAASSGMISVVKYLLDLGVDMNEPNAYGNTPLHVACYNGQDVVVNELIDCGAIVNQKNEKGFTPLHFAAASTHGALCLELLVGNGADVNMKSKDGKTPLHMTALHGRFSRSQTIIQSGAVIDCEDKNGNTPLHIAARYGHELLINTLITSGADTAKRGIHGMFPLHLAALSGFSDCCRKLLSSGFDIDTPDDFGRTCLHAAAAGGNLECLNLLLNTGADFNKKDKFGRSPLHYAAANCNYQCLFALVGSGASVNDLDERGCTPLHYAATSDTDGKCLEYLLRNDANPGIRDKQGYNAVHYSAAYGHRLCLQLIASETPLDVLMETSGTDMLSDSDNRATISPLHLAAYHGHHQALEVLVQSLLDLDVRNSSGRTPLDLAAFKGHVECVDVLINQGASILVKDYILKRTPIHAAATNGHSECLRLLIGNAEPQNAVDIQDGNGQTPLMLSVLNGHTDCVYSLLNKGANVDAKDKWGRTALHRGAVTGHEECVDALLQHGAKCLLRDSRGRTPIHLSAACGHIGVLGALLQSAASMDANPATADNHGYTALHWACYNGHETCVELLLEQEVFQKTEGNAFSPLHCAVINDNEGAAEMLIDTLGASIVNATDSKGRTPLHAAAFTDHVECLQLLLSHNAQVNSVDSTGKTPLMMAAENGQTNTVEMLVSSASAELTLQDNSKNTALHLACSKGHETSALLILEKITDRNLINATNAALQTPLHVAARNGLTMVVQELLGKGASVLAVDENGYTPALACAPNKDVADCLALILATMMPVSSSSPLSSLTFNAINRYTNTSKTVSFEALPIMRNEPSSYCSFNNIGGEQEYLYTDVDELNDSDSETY
UniProt P08758: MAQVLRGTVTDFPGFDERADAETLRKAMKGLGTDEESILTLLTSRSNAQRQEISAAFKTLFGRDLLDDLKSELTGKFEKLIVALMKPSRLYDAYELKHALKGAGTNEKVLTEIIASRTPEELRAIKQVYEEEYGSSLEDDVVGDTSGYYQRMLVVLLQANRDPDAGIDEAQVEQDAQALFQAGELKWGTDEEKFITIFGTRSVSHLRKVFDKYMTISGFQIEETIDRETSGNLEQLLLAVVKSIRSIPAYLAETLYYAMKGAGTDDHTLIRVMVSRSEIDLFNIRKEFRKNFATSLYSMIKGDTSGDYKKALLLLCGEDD
UniProt Q9UJX4, whole entry, looked up: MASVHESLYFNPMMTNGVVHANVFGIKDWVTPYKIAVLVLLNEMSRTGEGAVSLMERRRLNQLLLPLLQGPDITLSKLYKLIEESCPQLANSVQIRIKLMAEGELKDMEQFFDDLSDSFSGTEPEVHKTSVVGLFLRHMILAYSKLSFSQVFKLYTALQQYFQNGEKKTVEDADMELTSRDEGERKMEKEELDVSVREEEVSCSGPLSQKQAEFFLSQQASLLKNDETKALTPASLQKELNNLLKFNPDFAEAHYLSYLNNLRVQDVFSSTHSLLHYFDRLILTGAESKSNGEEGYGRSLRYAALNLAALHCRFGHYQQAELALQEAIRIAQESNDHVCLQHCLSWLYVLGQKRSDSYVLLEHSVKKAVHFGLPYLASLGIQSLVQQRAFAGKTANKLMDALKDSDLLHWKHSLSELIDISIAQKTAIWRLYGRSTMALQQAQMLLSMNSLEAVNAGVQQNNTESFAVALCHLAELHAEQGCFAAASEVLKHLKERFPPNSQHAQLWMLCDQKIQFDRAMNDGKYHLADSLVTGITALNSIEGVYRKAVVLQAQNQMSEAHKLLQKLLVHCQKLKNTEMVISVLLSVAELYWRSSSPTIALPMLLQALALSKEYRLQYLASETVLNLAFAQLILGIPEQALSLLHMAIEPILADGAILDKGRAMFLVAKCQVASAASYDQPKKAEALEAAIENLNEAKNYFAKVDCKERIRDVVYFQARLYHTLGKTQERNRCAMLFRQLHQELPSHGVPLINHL
UniProt Q5VTE6: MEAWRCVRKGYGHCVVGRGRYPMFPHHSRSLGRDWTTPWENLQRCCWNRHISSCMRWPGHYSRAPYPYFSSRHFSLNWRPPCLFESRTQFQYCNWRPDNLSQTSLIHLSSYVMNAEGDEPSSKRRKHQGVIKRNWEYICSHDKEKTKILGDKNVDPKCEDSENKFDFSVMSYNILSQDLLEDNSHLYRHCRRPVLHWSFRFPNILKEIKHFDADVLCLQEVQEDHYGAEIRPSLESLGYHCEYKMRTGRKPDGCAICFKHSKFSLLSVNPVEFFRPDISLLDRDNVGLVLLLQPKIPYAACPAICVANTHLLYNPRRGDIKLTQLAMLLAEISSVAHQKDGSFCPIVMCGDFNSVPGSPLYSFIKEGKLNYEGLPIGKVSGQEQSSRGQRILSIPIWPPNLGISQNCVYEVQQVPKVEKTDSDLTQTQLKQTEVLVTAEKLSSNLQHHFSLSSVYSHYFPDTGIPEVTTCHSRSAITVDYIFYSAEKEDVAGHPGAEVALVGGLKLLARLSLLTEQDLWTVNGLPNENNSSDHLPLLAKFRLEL
UniProt Q9BT22: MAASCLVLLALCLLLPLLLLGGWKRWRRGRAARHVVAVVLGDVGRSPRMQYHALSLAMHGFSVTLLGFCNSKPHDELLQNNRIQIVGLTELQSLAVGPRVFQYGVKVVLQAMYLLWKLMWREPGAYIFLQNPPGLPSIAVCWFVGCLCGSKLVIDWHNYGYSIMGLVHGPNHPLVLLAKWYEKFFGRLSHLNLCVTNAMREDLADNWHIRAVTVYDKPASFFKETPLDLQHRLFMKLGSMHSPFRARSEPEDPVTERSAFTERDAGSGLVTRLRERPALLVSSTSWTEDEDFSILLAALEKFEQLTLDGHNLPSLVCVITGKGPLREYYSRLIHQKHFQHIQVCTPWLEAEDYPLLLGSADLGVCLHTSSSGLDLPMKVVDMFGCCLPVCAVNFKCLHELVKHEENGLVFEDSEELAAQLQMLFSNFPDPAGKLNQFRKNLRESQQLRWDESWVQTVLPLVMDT
UniProt P63010: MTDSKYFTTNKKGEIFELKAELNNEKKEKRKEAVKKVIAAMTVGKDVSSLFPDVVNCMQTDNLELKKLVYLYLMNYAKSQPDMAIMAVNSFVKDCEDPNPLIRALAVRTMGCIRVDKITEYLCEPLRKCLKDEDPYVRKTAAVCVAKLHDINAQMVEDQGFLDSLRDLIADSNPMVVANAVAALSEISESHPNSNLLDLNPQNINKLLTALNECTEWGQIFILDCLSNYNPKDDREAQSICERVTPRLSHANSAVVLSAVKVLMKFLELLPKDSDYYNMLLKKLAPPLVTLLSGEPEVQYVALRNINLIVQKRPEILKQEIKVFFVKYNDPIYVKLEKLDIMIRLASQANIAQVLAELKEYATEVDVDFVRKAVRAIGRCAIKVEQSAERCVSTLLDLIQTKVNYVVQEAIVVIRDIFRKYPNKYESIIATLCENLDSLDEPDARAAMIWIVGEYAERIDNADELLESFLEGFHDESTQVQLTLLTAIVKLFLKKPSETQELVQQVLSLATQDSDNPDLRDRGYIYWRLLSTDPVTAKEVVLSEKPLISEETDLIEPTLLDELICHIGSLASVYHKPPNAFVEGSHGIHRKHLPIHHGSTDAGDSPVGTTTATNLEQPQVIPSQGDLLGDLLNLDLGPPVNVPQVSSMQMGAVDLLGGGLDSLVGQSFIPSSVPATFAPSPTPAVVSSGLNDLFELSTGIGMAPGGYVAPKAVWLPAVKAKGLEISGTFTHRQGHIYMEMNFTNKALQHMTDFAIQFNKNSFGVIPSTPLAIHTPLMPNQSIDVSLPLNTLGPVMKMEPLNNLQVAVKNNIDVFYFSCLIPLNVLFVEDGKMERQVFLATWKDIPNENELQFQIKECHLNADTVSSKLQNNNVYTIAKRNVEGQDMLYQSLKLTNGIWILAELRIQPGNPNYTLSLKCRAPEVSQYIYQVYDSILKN
UniProt P30038: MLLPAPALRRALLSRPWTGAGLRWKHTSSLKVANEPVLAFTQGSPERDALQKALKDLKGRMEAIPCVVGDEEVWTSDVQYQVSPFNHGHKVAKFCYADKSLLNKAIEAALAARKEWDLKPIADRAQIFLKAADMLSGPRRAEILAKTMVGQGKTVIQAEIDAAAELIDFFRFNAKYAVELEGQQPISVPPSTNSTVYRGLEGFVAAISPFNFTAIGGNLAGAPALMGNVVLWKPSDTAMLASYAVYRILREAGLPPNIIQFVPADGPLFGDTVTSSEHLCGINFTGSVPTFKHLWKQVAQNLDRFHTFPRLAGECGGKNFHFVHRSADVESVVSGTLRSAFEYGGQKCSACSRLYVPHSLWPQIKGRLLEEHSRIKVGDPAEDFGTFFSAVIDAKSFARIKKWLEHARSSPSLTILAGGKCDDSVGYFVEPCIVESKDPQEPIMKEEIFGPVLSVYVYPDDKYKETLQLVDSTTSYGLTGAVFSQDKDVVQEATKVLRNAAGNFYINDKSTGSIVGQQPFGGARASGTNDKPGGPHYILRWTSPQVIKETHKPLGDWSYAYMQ
UniProt Q9NP73: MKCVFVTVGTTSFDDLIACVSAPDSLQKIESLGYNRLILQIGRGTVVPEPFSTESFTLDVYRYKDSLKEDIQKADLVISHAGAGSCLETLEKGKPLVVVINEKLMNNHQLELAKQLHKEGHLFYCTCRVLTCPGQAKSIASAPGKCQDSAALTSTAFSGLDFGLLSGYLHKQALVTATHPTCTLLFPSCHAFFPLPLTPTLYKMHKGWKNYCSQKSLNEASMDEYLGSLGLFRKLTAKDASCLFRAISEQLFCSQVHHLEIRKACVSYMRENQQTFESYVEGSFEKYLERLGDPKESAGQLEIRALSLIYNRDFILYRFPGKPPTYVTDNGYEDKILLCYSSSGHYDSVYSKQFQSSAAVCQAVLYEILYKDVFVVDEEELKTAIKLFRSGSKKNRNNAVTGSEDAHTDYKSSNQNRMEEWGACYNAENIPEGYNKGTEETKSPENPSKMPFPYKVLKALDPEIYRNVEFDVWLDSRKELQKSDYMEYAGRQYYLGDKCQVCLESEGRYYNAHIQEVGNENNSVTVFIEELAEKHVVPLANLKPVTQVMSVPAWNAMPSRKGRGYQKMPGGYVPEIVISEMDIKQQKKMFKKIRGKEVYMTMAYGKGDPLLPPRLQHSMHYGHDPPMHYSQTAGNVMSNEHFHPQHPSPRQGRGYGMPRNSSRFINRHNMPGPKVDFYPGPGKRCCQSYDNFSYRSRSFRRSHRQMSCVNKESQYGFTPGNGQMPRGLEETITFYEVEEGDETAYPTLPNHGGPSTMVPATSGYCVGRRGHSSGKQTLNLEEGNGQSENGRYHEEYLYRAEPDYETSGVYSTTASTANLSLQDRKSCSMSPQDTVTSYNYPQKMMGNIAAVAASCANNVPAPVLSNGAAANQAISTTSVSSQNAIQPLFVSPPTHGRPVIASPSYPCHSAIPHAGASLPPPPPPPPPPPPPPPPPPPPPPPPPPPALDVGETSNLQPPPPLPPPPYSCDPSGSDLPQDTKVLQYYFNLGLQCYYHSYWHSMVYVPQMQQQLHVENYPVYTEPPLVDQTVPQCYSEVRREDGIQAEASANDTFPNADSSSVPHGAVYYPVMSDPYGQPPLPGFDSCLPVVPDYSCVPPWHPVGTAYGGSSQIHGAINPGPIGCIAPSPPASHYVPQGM

Key:
Assay in all cases: log2 fold change, soluble protein after heating vs DMSO (PISA); higher = thermal stabilisation; K562 lysate, 10 uM; active = over 0.2 and 3.5 SD of the protein, either way, in both replicates (recomputed)
lapatinib = compound: CS(=O)(=O)CCNCc1ccc(-c2ccc3ncnc(Nc4ccc(OCc5cccc(F)c5)c(Cl)c4)c3c2)o1 [lapatinib]
Procedure, shortened: (§1)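 The values are log-two fold changes in thermal stability compared with solvent controls and come from duplicates. They were obtained by TMTpro 16plex LC-MS/MS, with channel sums equalised, on the supernatant after 21,000xg for 90 min. That supernatant came from crude K562 extract at 1 mg/mL protein treated with 10 μM compound for 30 min, heated for 3 min across 48°C-58°C, pooled and brought to 0.5% NP-40 at 4°C.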

pictilisib = compound: CS(=O)(=O)N1CCN(Cc2cc3nc(-c4cccc5[nH]ncc45)nc(N4CCOCC4)c3s2)CC1 [pictilisib]
Procedure, shortened: as §1

crizotinib = compound: C[C@@H](Oc1cc(-c2cnn(C3CCNCC3)c2)cnc1N)c1c(Cl)ccc(F)c1Cl [crizotinib]
Procedure, shortened: as §1

[1] = compound: C[C@H](C1=CC=C(C=C1)C(=O)NC2=C3C=CNC3=NC=C2)N
Procedure, shortened: as §1

duvelisib = compound: C[C@H](Nc1ncnc2nc[nH]c12)c1cc2cccc(Cl)c2c(=O)n1-c1ccccc1 [duvelisib]
Procedure, shortened: as §1

gandotinib = compound: Cc1cc(Nc2cc(CN3CCOCC3)c3nc(C)c(Cc4ccc(Cl)cc4F)n3n2)n[nH]1 [gandotinib]
Procedure, shortened: as §1

tozasertib = compound: Cc1cc(Nc2cc(N3CCN(C)CC3)nc(Sc3ccc(NC(=O)C4CC4)cc3)n2)n[nH]1 [tozasertib]
Procedure, shortened: as §1

doramapimod = compound: Cc1ccc(-n2nc(C(C)(C)C)cc2NC(=O)Nc2ccc(OCCN3CCOCC3)c3ccccc23)cc1 [doramapimod]
Procedure, shortened: as §1

bafetinib = compound: Cc1ccc(NC(=O)c2ccc(CN3CC[C@H](N(C)C)C3)c(C(F)(F)F)c2)cc1Nc1nccc(-c2cncnc2)n1 [bafetinib]
Procedure, shortened: as §1

[2] = compound: Cc1cccc(CC(=O)N2CCc3c2ccc(-c2cn(C)c4ncnc(N)c24)c3F)n1
Procedure, shortened: as §1

nilotinib = compound: Cc1cn(-c2cc(NC(=O)c3ccc(C)c(Nc4nccc(-c5cccnc5)n4)c3)cc(C(F)(F)F)c2)cn1 [nilotinib]
Procedure, shortened: as §1

[3] = compound: Cc1nc(Nc2n[nH]c3c2CN(C(=O)N[C@H](CN(C)C)c2ccccc2)C3(C)C)c2sccc2n1
Procedure, shortened: as §1

dasatinib = compound: Cc1nc(Nc2ncc(C(=O)Nc3c(C)cccc3Cl)s2)cc(N2CCN(CCO)CC2)n1 [dasatinib]
Procedure, shortened: as §1

[4] = compound: Cc1ncc(-c2ccnc(Nc3ccc(S(C)(=O)=O)cc3)n2)n1C(C)C
Procedure, shortened: as §1

[5] = compound: Cn1cc(-c2ccc3c(c2)CCN3C(=O)Cc2cccc(C(F)(F)F)c2)c2c(N)ncnc21
Procedure, shortened: as §1

quisinostat = compound: Cn1cc(CNCC2CCN(c3ncc(C(=O)NO)cn3)CC2)c2ccccc21 [quisinostat]
Procedure, shortened: as §1

tipifarnib = compound: Cn1cncc1[C@@](N)(c1ccc(Cl)cc1)c1ccc2c(c1)c(-c1cccc(Cl)c1)cc(=O)n2C [tipifarnib]
Procedure, shortened: as §1

[6] = compound: NC(=O)Nc1cc(-c2cccc(F)c2)sc1C(=O)N[C@H]1CCCNC1
Procedure, shortened: as §1

[7] = compound: NC(=O)c1cnc(N[C@@H]2CCCC[C@@H]2N)nc1Nc1cccc(-n2nccn2)c1
Procedure, shortened: as §1

[8] = compound: NC1(c2ccc(-c3nc4ccn5c(=O)[nH]nc5c4cc3-c3ccccc3)cc2)CCC1
Procedure, shortened: as §1

Measured: log2 fold change

ANO10 (UniProt Q9NW15)
inactive: lapatinib -0.016 | pictilisib -0.01 | crizotinib -0.063 | [1] -0.007 | duvelisib 0.006 | gandotinib -0.046 | tozasertib -0.003 | doramapimod -0.006 | bafetinib 0.036 | [2] 0.032 | nilotinib 0.019 | [3] 0.031 | dasatinib -0.007 | [4] -0.004 | [5] 0.003 | quisinostat -0.009 | tipifarnib -0.062 | [6] 0.015 | [7] -0.005 | [8] 0

ALDH6A1 (UniProt Q02252)
inactive: lapatinib -0.04 | pictilisib -0.028 | crizotinib -0.023 | [1] -0.032 | duvelisib 0.073 | gandotinib -0.033 | tozasertib 0.021 | doramapimod -0.017 | bafetinib 0.122 | [2] -0.001 | nilotinib -0.053 | [3] 0.161 | dasatinib -0.144 | [4] -0.022 | [5] 0.06 | quisinostat -0.027 | tipifarnib -0.026 | [6] 0.018 | [7] -0.038 | [8] -0.013

AP3S1 (UniProt Q92572)
inactive: lapatinib -0.015 | pictilisib 0.013 | crizotinib 0.006 | [1] -0.046 | duvelisib -0.009 | gandotinib 0.018 | tozasertib -0.022 | doramapimod 0.041 | bafetinib -0.015 | [2] 0.092 | nilotinib -0.006 | [3] 0 | dasatinib -0.028 | [4] 0.006 | [5] -0.013 | quisinostat -0.014 | tipifarnib 0.037 | [6] -0.009 | [7] 0.028 | [8] -0.018

ANKRD28 (UniProt O15084)
inactive: lapatinib 0.006 | pictilisib 0.021 | crizotinib -0.06 | [1] -0.003 | duvelisib -0.012 | gandotinib -0.005 | tozasertib -0.008 | doramapimod 0.066 | bafetinib -0.015 | [2] 0 | nilotinib 0.007 | [3] 0.003 | dasatinib -0.045 | [4] -0.007 | [5] -0.004 | quisinostat -0.042 | tipifarnib -0.029 | [6] -0.012 | [7] 0.009 | [8] -0.031

AMPD2 (UniProt Q01433)
inactive: lapatinib -0.004 | pictilisib -0.001 | crizotinib 0.027 | [1] -0.042 | duvelisib 0.009 | gandotinib 0.026 | tozasertib 0.005 | doramapimod 0 | bafetinib -0.014 | [2] 0.028 | nilotinib 0 | [3] -0.004 | dasatinib 0.024 | [4] -0.008 | [5] 0.01 | quisinostat 0.004 | tipifarnib 0.026 | [6] 0.005 | [7] -0.002 | [8] 0.005

ALMS1 (UniProt Q8TCU4)
inactive: lapatinib -0.096 | pictilisib -0.095 | crizotinib -0.061 | [1] -0.037 | duvelisib 0.039 | gandotinib 0.047 | tozasertib -0.052 | doramapimod -0.007 | bafetinib -0.048 | [2] 0.049 | nilotinib 0.01 | [3] 0.103 | dasatinib 0.013 | [4] 0.016 | [5] 0.063 | quisinostat -0.101 | tipifarnib -0.029 | [6] 0.081 | [7] -0.094 | [8] -0.057

ANXA5 (UniProt P08758)
inactive: lapatinib 0.005 | pictilisib -0.009 | crizotinib 0.046 | [1] 0.059 | duvelisib -0.028 | gandotinib -0.119 | tozasertib 0.019 | doramapimod 0.015 | bafetinib -0.018 | [2] -0.065 | nilotinib 0.031 | [3] -0.008 | dasatinib -0.009 | [4] -0.067 | [5] 0.022 | quisinostat 0.111 | tipifarnib 0.019 | [6] 0.018 | [7] 0.01 | [8] 0.012

ANAPC5 (UniProt Q9UJX4)
inactive: lapatinib -0.01 | pictilisib -0.017 | crizotinib -0.034 | [1] -0.033 | duvelisib 0.005 | gandotinib -0.025 | tozasertib 0.019 | doramapimod 0.013 | bafetinib -0.043 | [2] 0.036 | nilotinib 0.029 | [3] -0.016 | dasatinib -0.026 | [4] -0.002 | [5] 0.003 | quisinostat -0.002 | tipifarnib -0.019 | [6] 0.054 | [7] 0.006 | [8] -0.013

ANGEL2 (UniProt Q5VTE6)
inactive: lapatinib 0.051 | pictilisib 0.047 | crizotinib -0.066 | [1] 0.006 | duvelisib 0.003 | gandotinib 0.061 | tozasertib 0.034 | doramapimod 0.036 | bafetinib 0.02 | [2] -0.029 | nilotinib 0.01 | [3] 0.057 | dasatinib -0.011 | [4] -0.033 | [5] 0.003 | quisinostat -0.062 | tipifarnib 0.039 | [6] 0.035 | [7] -0.087 | [8] -0.171

ALG1 (UniProt Q9BT22)
inactive: lapatinib 0.061 | pictilisib 0.115 | crizotinib -0.009 | [1] 0.06 | duvelisib 0.005 | gandotinib -0.092 | tozasertib 0.055 | doramapimod 0.008 | bafetinib -0.016 | [2] 0.147 | nilotinib -0.094 | [3] 0.048 | dasatinib -0.017 | [4] 0.173 | [5] 0.005 | quisinostat 0.055 | tipifarnib -0.022 | [6] 0.019 | [7] -0.005 | [8] -0.002

ANKS1A (UniProt Q92625)
inactive: lapatinib -0.011 | pictilisib 0.032 | crizotinib -0.035 | [1] -0.158 | duvelisib 0.007 | gandotinib 0.117 | tozasertib -0.029 | doramapimod 0.009 | bafetinib -0.029 | [2] 0.127 | nilotinib -0.012 | [3] -0.023 | dasatinib -0.006 | [4] 0.017 | [5] 0.018 | quisinostat -0.055 | tipifarnib -0.037 | [6] -0.002 | [7] -0.011 | [8] -0.019

AP2M1 (UniProt Q96CW1)
inactive: lapatinib 0.001 | pictilisib -0.001 | crizotinib -0.014 | [1] -0.112 | duvelisib 0.04 | gandotinib 0.124 | tozasertib 0.02 | doramapimod 0.032 | bafetinib 0.024 | [2] -0.002 | nilotinib -0.01 | [3] 0.018 | dasatinib 0 | [4] 0.055 | [5] -0.007 | quisinostat -0.015 | tipifarnib -0.021 | [6] -0.03 | [7] -0.018 | [8] -0.003

ANAPC4 isoform 3 (UniProt Q9UJX5)
inactive: lapatinib 0 | pictilisib -0.043 | crizotinib -0.047 | [1] -0.037 | duvelisib 0.021 | gandotinib 0.039 | tozasertib 0.019 | doramapimod 0.035 | bafetinib -0.038 | [2] 0.015 | nilotinib 0.005 | [3] 0.004 | dasatinib -0.065 | [4] -0.018 | [5] 0.026 | quisinostat -0.052 | tipifarnib -0.024 | [6] 0.002 | [7] -0.012 | [8] -0.039

AP2B1 isoform 2 (UniProt P63010)
inactive: lapatinib 0.002 | pictilisib 0.01 | crizotinib -0.015 | [1] -0.082 | duvelisib 0.009 | gandotinib 0.062 | tozasertib -0.011 | doramapimod 0.036 | bafetinib 0.005 | [2] 0.016 | nilotinib -0.015 | [3] 0.004 | dasatinib 0.01 | [4] 0.015 | [5] -0.004 | quisinostat -0.007 | tipifarnib -0.012 | [6] -0.023 | [7] -0.015 | [8] -0.001

ALDH4A1 (UniProt P30038)
inactive: lapatinib 0.047 | pictilisib -0.017 | crizotinib -0.022 | [1] 0.015 | duvelisib 0.045 | gandotinib -0.03 | tozasertib -0.002 | doramapimod -0.026 | bafetinib -0.023 | [2] 0.037 | nilotinib -0.005 | [3] 0.022 | dasatinib -0.01 | [4] 0.008 | [5] -0.04 | quisinostat -0.029 | tipifarnib -0.022 | [6] 0.071 | [7] -0.003 | [8] 0.028

ALG13 (UniProt Q9NP73)
inactive: lapatinib 0.017 | pictilisib -0.002 | crizotinib -0.12 | [1] -0.075 | duvelisib 0 | gandotinib 0.044 | tozasertib -0.091 | doramapimod -0.015 | bafetinib -0.025 | [2] 0.127 | nilotinib 0.089 | [3] -0.012 | dasatinib -0.044 | [4] 0.218 | [5] 0 | quisinostat -0.067 | tipifarnib -0.036 | [6] -0.004 | [7] 0.028 | [8] -0.009
